PMC4015341
Where two headings read alike, the source gives them in different places. Results are given in words; binding and its absence hold for the method and conditions named. For some assays here: Binding seen in cells or lysates may run through a third protein. Some binding calls cover weakened binding; strength is not graded here. Where a sequence is shown, tags or fusion partners need not be part of it.

Chains of the proteins cited; added tags and fusions are not shown. Lines headed by an entry give the natural chain unless they say otherwise; changes in a name come on top.
UniProt Q9LQQ4: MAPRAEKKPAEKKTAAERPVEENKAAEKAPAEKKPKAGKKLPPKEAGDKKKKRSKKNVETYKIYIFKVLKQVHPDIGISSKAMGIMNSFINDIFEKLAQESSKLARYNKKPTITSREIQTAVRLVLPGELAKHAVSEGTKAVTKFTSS

T1: Full length LUH as N-LUC fusion (Arabidopsis thaliana) (UniProt O48847)
T1 sequence: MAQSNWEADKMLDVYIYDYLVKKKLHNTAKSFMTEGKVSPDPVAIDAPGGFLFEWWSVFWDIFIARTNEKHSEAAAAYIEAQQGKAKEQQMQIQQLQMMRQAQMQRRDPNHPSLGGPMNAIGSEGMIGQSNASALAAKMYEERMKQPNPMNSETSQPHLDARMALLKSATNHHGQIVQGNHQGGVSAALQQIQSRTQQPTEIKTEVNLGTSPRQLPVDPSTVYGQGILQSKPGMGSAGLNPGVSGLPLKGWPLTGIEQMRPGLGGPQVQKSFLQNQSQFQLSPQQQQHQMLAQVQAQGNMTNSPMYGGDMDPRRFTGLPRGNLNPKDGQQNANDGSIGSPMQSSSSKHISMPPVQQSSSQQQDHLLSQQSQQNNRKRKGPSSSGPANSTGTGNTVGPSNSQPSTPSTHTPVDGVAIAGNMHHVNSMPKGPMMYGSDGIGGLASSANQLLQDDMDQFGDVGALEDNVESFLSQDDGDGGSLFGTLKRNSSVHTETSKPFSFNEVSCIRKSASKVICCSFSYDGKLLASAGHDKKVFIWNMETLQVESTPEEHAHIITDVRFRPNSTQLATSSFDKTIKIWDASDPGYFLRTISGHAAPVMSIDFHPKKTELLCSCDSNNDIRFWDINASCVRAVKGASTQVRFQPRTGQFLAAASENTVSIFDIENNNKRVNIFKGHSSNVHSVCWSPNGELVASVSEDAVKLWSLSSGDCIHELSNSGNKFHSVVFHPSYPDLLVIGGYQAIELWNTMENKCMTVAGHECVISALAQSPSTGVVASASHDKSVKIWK

T2: LEUNIG_HOMOLOG (LUH) fused with the Gal4 DNA binding domain (Arabidopsis thaliana) (UniProt O48847)
T2 sequence: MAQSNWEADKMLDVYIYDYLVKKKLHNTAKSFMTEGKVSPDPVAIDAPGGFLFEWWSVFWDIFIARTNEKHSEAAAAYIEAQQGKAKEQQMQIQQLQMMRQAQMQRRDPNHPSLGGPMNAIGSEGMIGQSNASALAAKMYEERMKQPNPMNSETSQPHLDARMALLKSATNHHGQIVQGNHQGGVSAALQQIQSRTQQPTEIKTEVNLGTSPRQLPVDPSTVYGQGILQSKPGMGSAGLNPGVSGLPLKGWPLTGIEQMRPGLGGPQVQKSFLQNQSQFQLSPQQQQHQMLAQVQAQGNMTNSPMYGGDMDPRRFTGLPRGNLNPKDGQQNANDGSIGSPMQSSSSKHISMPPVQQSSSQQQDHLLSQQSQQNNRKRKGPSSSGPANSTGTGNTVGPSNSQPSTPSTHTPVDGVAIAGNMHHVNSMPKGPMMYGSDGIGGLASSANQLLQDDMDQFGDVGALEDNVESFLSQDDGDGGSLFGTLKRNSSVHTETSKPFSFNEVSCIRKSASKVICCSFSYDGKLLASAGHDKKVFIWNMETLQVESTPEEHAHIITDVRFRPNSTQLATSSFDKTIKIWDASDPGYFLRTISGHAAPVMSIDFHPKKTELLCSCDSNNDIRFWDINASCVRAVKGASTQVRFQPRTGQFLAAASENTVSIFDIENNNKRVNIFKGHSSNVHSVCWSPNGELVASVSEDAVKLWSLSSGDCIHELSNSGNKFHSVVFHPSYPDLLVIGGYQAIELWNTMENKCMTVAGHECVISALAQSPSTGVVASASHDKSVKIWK

T3: LUFS domain of LUH (amino acid residues 1-88) as Gal4 BD fusion (Arabidopsis thaliana) (UniProt O48847)
T3 sequence: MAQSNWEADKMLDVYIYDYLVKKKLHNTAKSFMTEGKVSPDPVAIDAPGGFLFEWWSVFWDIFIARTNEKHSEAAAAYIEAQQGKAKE


How the values were obtained:
[1] = biological target: T1, Full length LUH as N-LUC fusion (Arabidopsis thaliana); test: split reporter; split luciferase complementation in Arabidopsis protoplasts; 15 ug of each N-LUC and C-LUC fusion plasmid, 5 x 10^4 protoplasts, 16 h in the dark at room temperature; LUC relative to Renilla LUC
[2] = biological target: T2, LEUNIG_HOMOLOG (LUH) fused with the Gal4 DNA binding domain (Arabidopsis thaliana); test: two-hybrid; Y2H Gold yeast; bait as Gal4-BD fusion (pGBKT7), prey as Gal4-AD fusion (pGADT7); alpha-galactosidase reporter, blue colour indicates positive interaction
[3] = biological target: T3, LUFS domain of LUH (amino acid residues 1-88) as Gal4 BD fusion (Arabidopsis thaliana); test: as above
[4] = biological target: T2, LEUNIG_HOMOLOG (LUH) fused with the Gal4 DNA binding domain (Arabidopsis thaliana); test: as above; remark: listed apart in the source
[5] = biological target: T1, Full length LUH as N-LUC fusion (Arabidopsis thaliana); test: split reporter; split luciferase complementation in Arabidopsis protoplasts; 15 ug of each N-LUC and C-LUC fusion plasmid, 5 x 10^4 protoplasts, 16 h in the dark at room temperature; LUC relative to Renilla LUC; remark: listed apart in the source

Molecule | binding [3] | binding [4] | binding [5] | further results
Histone H2B as C-LUC fusion (from UniProt Q9LQQ4 1-148) |  |  |  | binding [1]: binds
Histone H2B (AT1G07790) as Gal4 AD fusion (from UniProt Q9LQQ4 1-148) |  |  |  | binding [2]: binds
SEUSS-LIKE1 (SLK1) fused with the Gal4 activation domain (protein, UniProt Q0WVM7 1-748) MNRTVVSGAVESSFSLTDAVGTEALNMQRSSGINNNMRIPTSPMSFSSNSVNIPGSLVLDGSAASMQHLPQQQQQQLLQQQTGQGSVPMRENNYSHVDKKPRLEVKQEDMLQQQILQQLIQRQDPTGRNPQMQALLQQQRLRQHQQMLQSMSPSQRLQLQQQQQLRQQLQQQGTQQIPPNVRPYEVGVCARKLMMYLYHLQQRPAENCITYWRKFVAEYFSPRAKQRLCLSQYESAGHHALGMFPQAAPDMWQCDLCGTKSGKGFEATFDVLARLIEIKFASGIIDELLYLDHPRENRFPNGLMMLEYRKAVQETVHEQFRVVREGHLRIIFSQDLKILSWEFCARRHEELLLRRLIAPQVNQLLQVAQKCQSTISESGSEGVSQQDLQSNSNMVLGAGRQLAKFMELQSLNDLGYPKRYIRTLQISEVVKSMKDLMNFTGEQKIGPIEGLKRLLEQTVTVKLQKQKMQEMEQFGNNGAINGPVQAQMVLTSGTMNGSTGNNTNNHHQIVGRGAMSGPAEGQMVISSGTVSGATANNNSNNHNQIVGRGAMNGSAQAAAALTNYQSMLMRQNAMNNPNSNTGKQEGFSSQNPTPNSNQSPSSSSQQRHNLVTGGFPNSPQMQQQQRTMNGPTNILPQNHPHQLQSPHSHGNTPEQQMLHQLLQEMSENGGSVQQQQAFSGQSGSNSNAERNTTASTSNISGGGRAPSRNNSFKAASNNNLHFSEDISITDHDFSEDGFFNNNDIYGGL | binds | binds |  | 
SEUSS-LIKE2 (SLK2) fused with the Gal4 activation domain (protein, UniProt Q94BP0 1-816) MASSTSGIFFQGDDESQSFINSHLTSSYGNSSNSAPGCGGPTGGYHNLSMVSGDMHNPVMMSVSTPGPSAGASSLVTDANSGLSGGGPHLQRSASINNESYMRLPASPMSFSSNNISISGSSVVDGSTVVQRHDPSVQLGGSSATSLPTSQTNQIPLSMARRASESFFQDPNNLTQARKKPRLDSKQDDALQQQILRQWLQRQDILQQQQQQQQQGQNPQFQILLQQQKLRQQQQYLQSLPPLQRVQLQQQQQVQQQQQLQQQHQQQQQQLQQQGMQMQLTGGPRPYENSVCARRLMQYLYHQRQRPSESSIVYWRKFVTEYFSPRAKKRWCLSHYDNVGHSALGVSPQAATDEWQCDLCGSKSGRGFEATFDVLPRLNEIKFASGVLDELLYLGVPSERRYGSGIMVLEYGKAVQESVYEHIRVVREGHLRIIFSQELKILSWEFCTRRHEELLPRRLVAPQVNQLLQVAEKCQSTIDQSGSDGIHQQDLQANSNMVMAAGRQLAKSLESHSLNDLGFSKRYVRCLQISEVVSSMKDMIDFCRDQKVGPIEALKSYPYRMKAGKPQMQEMEQLAAARGLPPDRNSLNKLMALRNSGINIPMNNMSGQGSLPGSAQAAAFALTNYQSMLMKQNHLNSDLNNTTIQQEPSRNRSASPSYQGTSPLLPGFVHSPSISGVSSHLSPQRQMPSSSYNGSTQQYHQQPPSCSSGNQTLEQQMIHQIWQQMANSNGGSGQQQQSLSGQNMMNCNTNMGRNRTDYVPAAAETPSTSNRFRGIKGLDQSQNLEGIISNTSLNFGNNGVFSNEVDESMGGYSWKS | binds | binds |  | 
SLK1 as C-LUC fusion (protein, UniProt Q0WVM7 1-748) MNRTVVSGAVESSFSLTDAVGTEALNMQRSSGINNNMRIPTSPMSFSSNSVNIPGSLVLDGSAASMQHLPQQQQQQLLQQQTGQGSVPMRENNYSHVDKKPRLEVKQEDMLQQQILQQLIQRQDPTGRNPQMQALLQQQRLRQHQQMLQSMSPSQRLQLQQQQQLRQQLQQQGTQQIPPNVRPYEVGVCARKLMMYLYHLQQRPAENCITYWRKFVAEYFSPRAKQRLCLSQYESAGHHALGMFPQAAPDMWQCDLCGTKSGKGFEATFDVLARLIEIKFASGIIDELLYLDHPRENRFPNGLMMLEYRKAVQETVHEQFRVVREGHLRIIFSQDLKILSWEFCARRHEELLLRRLIAPQVNQLLQVAQKCQSTISESGSEGVSQQDLQSNSNMVLGAGRQLAKFMELQSLNDLGYPKRYIRTLQISEVVKSMKDLMNFTGEQKIGPIEGLKRLLEQTVTVKLQKQKMQEMEQFGNNGAINGPVQAQMVLTSGTMNGSTGNNTNNHHQIVGRGAMSGPAEGQMVISSGTVSGATANNNSNNHNQIVGRGAMNGSAQAAAALTNYQSMLMRQNAMNNPNSNTGKQEGFSSQNPTPNSNQSPSSSSQQRHNLVTGGFPNSPQMQQQQRTMNGPTNILPQNHPHQLQSPHSHGNTPEQQMLHQLLQEMSENGGSVQQQQAFSGQSGSNSNAERNTTASTSNISGGGRAPSRNNSFKAASNNNLHFSEDISITDHDFSEDGFFNNNDIYGGL |  |  | binds | 
SLK2 as C-LUC fusion (protein, UniProt Q94BP0 1-816) MASSTSGIFFQGDDESQSFINSHLTSSYGNSSNSAPGCGGPTGGYHNLSMVSGDMHNPVMMSVSTPGPSAGASSLVTDANSGLSGGGPHLQRSASINNESYMRLPASPMSFSSNNISISGSSVVDGSTVVQRHDPSVQLGGSSATSLPTSQTNQIPLSMARRASESFFQDPNNLTQARKKPRLDSKQDDALQQQILRQWLQRQDILQQQQQQQQQGQNPQFQILLQQQKLRQQQQYLQSLPPLQRVQLQQQQQVQQQQQLQQQHQQQQQQLQQQGMQMQLTGGPRPYENSVCARRLMQYLYHQRQRPSESSIVYWRKFVTEYFSPRAKKRWCLSHYDNVGHSALGVSPQAATDEWQCDLCGSKSGRGFEATFDVLPRLNEIKFASGVLDELLYLGVPSERRYGSGIMVLEYGKAVQESVYEHIRVVREGHLRIIFSQELKILSWEFCTRRHEELLPRRLVAPQVNQLLQVAEKCQSTIDQSGSDGIHQQDLQANSNMVMAAGRQLAKSLESHSLNDLGFSKRYVRCLQISEVVSSMKDMIDFCRDQKVGPIEALKSYPYRMKAGKPQMQEMEQLAAARGLPPDRNSLNKLMALRNSGINIPMNNMSGQGSLPGSAQAAAFALTNYQSMLMKQNHLNSDLNNTTIQQEPSRNRSASPSYQGTSPLLPGFVHSPSISGVSSHLSPQRQMPSSSYNGSTQQYHQQPPSCSSGNQTLEQQMIHQIWQQMANSNGGSGQQQQSLSGQNMMNCNTNMGRNRTDYVPAAAETPSTSNRFRGIKGLDQSQNLEGIISNTSLNFGNNGVFSNEVDESMGGYSWKS |  |  | binds | 
